# From PubChem BioAssay AID1347076 (National Center for Advancing Translational Sciences (NCATS), 2019)
# Among all 400,000 compounds or so, about 13,000 (3.2%) were called active. The inconclusive results got no clear call from the source; some entries with a clear call stand among them for comparison. Calls come from the whole dose curve; as a rule, active = well fitted cell-killing curve with a large enough effect; inconclusive = small, poorly fitted or top-dose-only effect, or effect the other way; inactive = flat fitted curve, though single readings scatter. Potencies of inconclusive entries are doubtful fits and often do not repeat.
# Test: qHTS assay for MDR1-selective chemotherapeutics: Primary screen using the drug-selected MDR subline cells KB-V1; note: nearly all actives have a fitted effect of over 60% in size
# Details: KB-V1 MDR cells viability, CellTiter-Glo, 72 h; activity change, negative = cytotoxicity: at 46.1 µM (top of the series)
# Summary of the method: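 Following 72 h at 37 degrees C with compound, KB-V1 cell viability was read by CellTiter-Glo luminescence, medium being phenol-red-free DMEM plus 10% FBS; concentration-response parameters came from normalized, curve-fitted qHTS data.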
# % is set by controls: 0 for no effect and ±100 for the full control effect; potency is the fitted concentration of half-maximal effect.
SMILES,Potency,"activity change, negative = cytotoxicity"
CCc1ccc(-c2n[nH]nc2C2=CC(=O)C[C@H](c3ccc(F)cc3)C2)cc1,"inconclusive: 8.2 µM [cytotoxic, partial curve]",–
COC(=O)c1c(NC(=O)c2cccc(S(=O)(=O)N3CCN(C)CC3)c2)sc(C)c1C,–,inactive: -1.51%
COc1ccccc1Nc1ccc(C(=O)O)cc1[N+](=O)[O-],"inconclusive: 8.2 µM [rising, partial curve, poor fit]",–
CC(C)(C)OC(=O)N1CCC[C@H]1c1nnc(SCc2ccccc2Cl)o1,"inconclusive: 7.31 µM [cytotoxic, partial curve]",–
CCCn1c(=O)[nH]c(=O)c2c1nc(-c1ccc(OC(F)F)c(OC)c1)n2CCOC,–,inactive: 0%
O=C(NN=C1CCCCCC1)c1ccncc1,"inconclusive: 29.1 µM [rising, single point]",–
Cc1nnc(SC(=O)N2c3ccccc3Sc3ccccc32)s1,"inconclusive: 20.6 µM [cytotoxic, single point]",–
O=C(COC(=O)c1ccc2c(c1)OCCO2)Nc1cc(S(=O)(=O)N2CCOCC2)ccc1Cl,"inconclusive: 2.91 µM [rising, full curve, poor fit]",–
Cc1nc(CNS(=O)(=O)c2ccc3c(c2)CCCC3)cs1,–,inactive: -3.94%
O=C(Nc1ccccc1C(=O)NCc1ccccc1)c1ccco1,"inconclusive: 20.6 µM [cytotoxic, single point]",–
O=C(Nc1cccnc1)c1ccc(COCC(F)(F)F)cc1,"inconclusive: 18.4 µM [cytotoxic, single point]",–
O=C(CCCCn1c(=O)c2ccccc2n(Cc2ccc(F)cc2Cl)c1=O)NCCc1ccc(Cl)cc1,–,inactive: -2.33%
O=C(c1cc(N2C(=O)C3C4CCC(C4)C3C2=O)ccc1Cl)N1CCN(c2ccccc2)CC1 (configuration not stated),active: 3.26 µM,–
CCN(CC)C(=O)CC(c1ccc(F)cc1)c1ccc(OC)cc1 (configuration not stated),"inconclusive: 16.4 µM [cytotoxic, partial curve]",–
COc1ccc(CCNC(=O)C2CCN(S(=O)(=O)c3ccc4c(c3)oc(=O)n4C)CC2)cc1OC,–,inactive: -1.04%
COc1ccccc1CNC(=O)CCC(=O)Nc1nnc(C)s1,"inconclusive: 23.1 µM [rising, partial curve, poor fit]",–
CCOC(=O)c1c(C)[nH]c(C(=O)OCC(=O)Nc2cccnc2Cl)c1C,"inconclusive: 9.2 µM [cytotoxic, partial curve]",–
CCOC(=O)c1c(NC(=O)CN2CCCc3ccccc32)sc(C)c1CC,"inconclusive: 29.1 µM [cytotoxic, single point]",–
CCOc1cc(-n2ncc(C#N)c2N)nc(SC)n1,"inconclusive: 2.82 µM [cytotoxic, full curve, poor fit]",–
Cc1cccc(NC(=O)CSCC(=O)N(C)CC(=O)Nc2cccc(F)c2)c1,"inconclusive: 14.6 µM [rising, single point]",–
CCOC(=O)C[C@H]1c2cc(F)ccc2S(=O)(=O)N1Cc1ccc(OC)cc1,"inconclusive: 6.51 µM [cytotoxic, partial curve]",–

# Part of the list above in order of molecular weight, low to high.
SMILES,Potency,"activity change, negative = cytotoxicity"
COc1ccccc1Nc1ccc(C(=O)O)cc1[N+](=O)[O-],"inconclusive: 8.2 µM [rising, partial curve, poor fit]",–
Cc1nnc(SC(=O)N2c3ccccc3Sc3ccccc32)s1,"inconclusive: 20.6 µM [cytotoxic, single point]",–
O=C(c1cc(N2C(=O)C3C4CCC(C4)C3C2=O)ccc1Cl)N1CCN(c2ccccc2)CC1 (configuration not stated),active: 3.26 µM,–

# Later entries

SMILES,Potency,"activity change, negative = cytotoxicity"
COc1ccc(C(=O)CC(=O)C(=O)NCCc2cccc(C)c2)cc1,"inconclusive: 16.4 µM [cytotoxic, partial curve, poor fit]",–
Cc1ccc(C2=NC(C)(C)N=C2SCC(=O)Nc2ccc(Cl)cc2)cc1,"inconclusive: 23.1 µM [cytotoxic, single point]",–
CC(=O)n1c2c(c3ccccc31)OC(N)=C(C#N)C2c1ccc(C(C)C)cc1 (configuration not stated),"inconclusive: 25.9 µM [cytotoxic, single point]",–
CCOC(=O)[C@]12CCC=C1N(CCC1=CCCCC1)C(=O)[C@H](CC(=O)NCc1ccc(C)o1)C2,"inconclusive: 13 µM [cytotoxic, partial curve, poor fit]",–
CC1CC(C)CN(CCOc2cccc(Cl)c2Cl)C1 (configuration not stated),"inconclusive: 16.4 µM [cytotoxic, partial curve]",–
COc1ccc(C(=O)Nc2ccccc2C(=O)N2CCN(c3ccccc3)CC2)cc1,–,inactive: 2.33%
O=c1[nH]c(=O)n(Cc2ccco2)c2c1C(C(F)(F)F)(C(F)(F)F)N=C(Cc1ccccc1)N2,"inconclusive: 29.1 µM [cytotoxic, single point]",–
O=C(CSc1nc(-c2cccs2)cc(C(F)(F)F)n1)Nc1cc(OCC(F)(F)C(F)F)cc([N+](=O)[O-])c1,active: 16.4 µM,–
O=C(COC(=O)c1ccccc1C(=O)N1CCN(c2ccc(F)cc2)CC1)NCc1ccccc1,"inconclusive: 18.4 µM [cytotoxic, single point]",–
CCOC(=O)C(=CN=C(N)Nc1nc2ccccc2o1)C(=O)OCC,–,inactive: -3.5%
COCCn1c(SCC(=O)Nc2cc(C)cc(C)c2)nc2ccccc2c1=O,–,inactive: -20.3%
CCn1cc(S(=O)(=O)CC(=O)Nc2ccc(C)cc2)c2ccccc21,"inconclusive: 20.6 µM [cytotoxic, single point]",–
COc1cc([N+](=O)[O-])ccc1NC(=O)NNC(=O)c1sccc1C,"inconclusive: 32.6 µM [cytotoxic, partial curve, poor fit]",–
COc1ccc(-c2nc3c(=O)n(C)c(=O)[nH]c3n2CCc2ccccc2)cc1,"inconclusive: 29.1 µM [rising, single point]",–
Cc1cc(C)n(-c2ccn(Cc3ccc(Cl)cc3Cl)c(=O)n2)n1,active: 7.31 µM,–
CCOC(=O)c1sc2nccc(N(C)C)c2c1N=CNOCc1ccccc1,active: 9.2 µM,–
COc1ccc(NC(=O)C2c3ccccc3OCC(=O)N2C2CC2)cc1 (configuration not stated),"inconclusive: 29.1 µM [rising, single point]",–
COc1ccccc1NC(=O)C(Sc1ccccc1)c1ccccc1 (configuration not stated),"inconclusive: 29.1 µM [cytotoxic, single point]",–
COc1ccc(-c2cc(-c3ccc(O)cc3)nc(N)c2C#N)cc1OC,"inconclusive: 20.6 µM [cytotoxic, single point]",–
O=C(/C(=N\Nc1ccc(Br)cc1)Sc1nnnn1-c1ccccc1)c1ccccc1,"inconclusive: 23.1 µM [cytotoxic, single point]",–
CS(=O)(=O)Nc1cccc2cccnc12,–,inactive: 0%
